Experimental findings from PubChem BioAssay AID248 (DTP/NCI, 2004) are described below.

The list does not hold the whole screen: it gathers tests that were run many times, whatever their T/C, doses with no T/C, and many T/C values between a quarter and a half above the control. Further doses and runs are listed elsewhere. T/C is the treated group as % of the vehicle group. Some doses have a count of surviving animals in place of a T/C: the source files T/C as zero there, which appears to mark a toxic dose or a test without result, not a measured value. Some survivor counts are full or nearly so, which does not show that the dose was tolerated: the source hardly ever lists a survival T/C far under the control, and the zero likely stands for such cases as well. Counts of survivors are from the toxicity check (mostly the fifth day) where no day follows; animals may have died later. Schedules are NCI's codes, taken here to give the interval after Q, in days (D) or hours (H), and the number of doses after X. Some schedule codes hold Z or #, which are not explained here. Where survival is the endpoint, the PubChem record calls one and a half times the control and up active, and a quarter to a half above the control has no call in these data; cut-offs in other NCI protocols can differ. Some T/C values are followed by the survivors on the day toxicity was checked, most often the fifth; without a count, all were alive then.

This experiment has as its system L1210 leukemia ip in BDF1 mice, survival T/C. In words: NCI In Vivo Anticancer Drug Screen. Data for tumor model L1210 Leukemia (intraperitoneal) in B6D2F1 (BDF1) mice. The note with it: T/C endpoint: mean survival time, higher T/C = longer survival.
Where [1] appears, read: dose: 200.0 mg/kg/injection, schedule: Q04DX002 (ip), vehicle: Klucel (hydroxypropylcellulose) (HPC).
Where [2] appears, read: dose: 400.0 mg/kg/injection, schedule: Q01DX001 (ip), vehicle: saline.
[3] abbreviates: dose: 200.0 mg/kg/injection, schedule: Q01DX009 (ip), vehicle: saline with Tween-80.
Setting [4] is: dose: 400.0 mg/kg/injection, schedule: Q01DX009 (ip), vehicle: saline with Tween-80.
Setting [5] is: dose: 300.0 mg/kg/injection, schedule: Q01DX001 (ip), vehicle: saline.

Take `N#CC(C(N)=O)c1ccccc1` (stereo unspecified): the survivor count runs as follows: (dose: 200.0 mg/kg/injection, schedule: Q04DX003 (ip), vehicle: saline with Tween-80) 4 of 6; (dose: 400.0 mg/kg/injection, schedule: Q04DX003 (ip), vehicle: saline with Tween-80) 0 of 6.

`CN=C(N)c1ccc(N=C(N)c2ccc(-c3ccc(C(N)=Nc4ccc(C(N)=NC)cc4)cc3)cc2)cc1`: the T/C (dose: 9.0 mg/kg/injection, schedule: Q01DX Z (ip), vehicle: carboxymethylcellulose (CMC)) was 143 % of control. Also, the survivor count (dose: 400.0 mg/kg/injection, schedule: Q01DX Z (oral), vehicle: water) was 0 of 6.

Regarding `CCOc1ccc(NC(C)=O)c(OC(C)=O)c1`, the survivor count is reported as 6 of 6 (dose: 150.0 mg/kg/injection, schedule: Q01DX001 (ip), vehicle: carboxymethylcellulose (CMC)) and 2 of 6 (dose: 300.0 mg/kg/injection, schedule: Q01DX001 (ip), vehicle: carboxymethylcellulose (CMC)).

`O=C(O)c1ccc(N=Cc2ccccc2O)cc1.[Co]`: where the note is “dose: 400.0 mg/kg/injection, schedule: Q01DX001 (ip), vehicle: other”, the survivor count is 0 of 6.

For `CCCCN(C)/N=N/c1nn[nH]n1`, the survivor count under setting [1] is reported as 3 of 3.

With `NNC(=O)Cc1ccc([N+](=O)[O-])cc1`, the survivor count under setting [2] is 3 of 6.

For `O=[N+]([O-])CC1(O)CCCCC1`, under “dose: 100.0 mg/kg/injection, schedule: Q01DX009 (ip), vehicle: Klucel (hydroxypropylcellulose) (HPC)”, the survivor count is 0 of 6.

On to `Cc1c2cnccc2c(C)c2c1c1ccccc1n2CCCN1C(=O)c2ccccc2C1=O`, for which the survivor count runs as follows: (dose: 100.0 mg/kg/injection, schedule: Q01DX009 (ip), vehicle: saline with Tween-80) 6 of 6; under setting [3], 6 of 6; under setting [4], 6 of 6.

Turning to `CCNCCCNCC`, the survivor count under setting [5] is 1 of 6.

Consider `CNC(=O)Nc1ccc(Cl)cn1`, for which the survivor count under setting [3] is given as 2 of 6 and the survivor count under setting [4] is on record as 0 of 6.

Regarding `CCN(CC)CCCC(C)Nc1ncnc2ncc3c(c12)CCCC3` (stereo unspecified), the survivor count (dose: 400.0 mg/kg/injection, schedule: Q04DX002 (ip), vehicle: saline) is on record as 0 of 3.

On to `CN1CCN=C(c2ccccc2)c2cc(Cl)ccc21`, for which the survivor count is listed as 0 of 6 (dose: 200.0 mg/kg/injection, schedule: Q01DX009 (ip), vehicle: saline); 4 of 4 (dose: 200.0 mg/kg/injection, schedule: Q04DX003 (ip), vehicle: saline); 0 of 6 (dose: 400.0 mg/kg/injection, schedule: Q01DX009 (ip), vehicle: saline); 1 of 4 (dose: 400.0 mg/kg/injection, schedule: Q04DX003 (ip), vehicle: saline).

Turning to `C=C(c1ccccc1)[P+](c1ccccc1)(c1ccccc1)c1ccccc1`, the survivor count was 0 of 6 (dose: 30.0 mg/kg/injection, schedule: Q01DX001 (ip), vehicle: saline); 0 of 6 (dose: 60.0 mg/kg/injection, schedule: Q01DX001 (ip), vehicle: saline); 0 of 6 (dose: 75.0 mg/kg/injection, schedule: Q01DX001 (ip), vehicle: saline); 0 of 6 (dose: 150.0 mg/kg/injection, schedule: Q01DX001 (ip), vehicle: saline); 0 of 6 under setting [5].

Take `COc1ccc(/C=N\O)cc1OC`: the survivor count under setting [4] is listed as 2 of 6.

On to `CCOc1ccc(N2CSC(=S)N(c3ccc(OCC)cc3)C2)cc1`, for which the survivor count (dose: 400.0 mg/kg/injection, schedule: Q01DX009 (ip), vehicle: Klucel (hydroxypropylcellulose) (HPC)) is 4 of 6.

As for `C/C(=N\O)C(C)(C)C`, the survivor count was 3 of 3 under setting [1] and 3 of 3 (dose: 400.0 mg/kg/injection, schedule: Q04DX002 (ip), vehicle: Klucel (hydroxypropylcellulose) (HPC)).

In the case of `COC(=O)[C@@]12OC[C@]34[C@H]([C@@H](O)[C@@H]1O)[C@@]1(C)CC(=O)C(O)=C(C)[C@@H]1C[C@H]3OC(=O)[C@H](OC(=O)/C=C(\C)C(C)C)[C@@H]24`, the T/C is 127 % of control (dose: 0.12 mg/kg/injection, schedule: Q01DX009 (ip), vehicle: saline with Tween-80); 129 % of control [9 of 10 alive] (dose: 0.25 mg/kg/injection, schedule: Q01DX009 (ip), vehicle: other, evaluated on day 30); 125 % of control (dose: 0.25 mg/kg/injection, schedule: Q01DX009 (ip), vehicle: other, evaluated on day 60); 128 % of control (dose: 0.25 mg/kg/injection, schedule: Q01DX009 (ip), vehicle: saline with Tween-80); 128 % of control (dose: 0.5 mg/kg/injection, schedule: Q01DX009 (ip), vehicle: other); 135 % of control (dose: 0.5 mg/kg/injection, schedule: Q01DX009 (ip), vehicle: saline with Tween-80). The T/C reads like this: (dose: 1.0 mg/kg/injection, schedule: Q01DX009 (ip), vehicle: other) 127 % of control; (dose: 1.0 mg/kg/injection, schedule: Q01DX009 (ip), vehicle: saline with Tween-80, evaluated on day 30) 141 % of control; (dose: 1.0 mg/kg/injection, schedule: Q01DX009 (ip), vehicle: saline with Tween-80, evaluated on day 60) 132 % of control [9 of 10 alive]; (dose: 2.0 mg/kg/injection, schedule: Q01DX009 (ip), vehicle: saline with Tween-80) 128 % of control [9 of 10 alive]. Besides, the survivor count (dose: 0.25 mg/kg/injection, schedule: Q03HX024 (ip), vehicle: saline with Tween-80) is 2 of 10; the survivor count (dose: 0.5 mg/kg/injection, schedule: Q03HX024 (ip), vehicle: other) is 0 of 10; the survivor count (dose: 0.5 mg/kg/injection, schedule: Q03HX024 (ip), vehicle: saline with Tween-80) was 3 of 10; the survivor count (dose: 2.0 mg/kg/injection, schedule: Q01DX009 (ip), vehicle: other) is 5 of 10; the survivor count (dose: 4000.0 micrograms/kg/injection, schedule: Q01DX009 (ip), vehicle: saline + alcohol) is 4 of 6.

Take `Cc1cc([N+](=O)[O-])ccc1O`: the survivor count under setting [2] was 0 of 4.
